According to PubChem BioAssay AID588463 (National Center for Advancing Translational Sciences (NCATS), 2011):
In all, about 1,200 compounds went through this assay and about 15 (1%) were called active. Roughly 7% stayed inconclusive and do not appear here. The call rests on the fitted dose curve; in most records, active means well fitted activation curve with a large enough effect; inconclusive means small, poorly fitted or top-dose-only effect; inactive means flat fitted curve, though single readings scatter. This is one part of the list.

Biological target: Beta-2 adrenergic receptor (Homo sapiens) (UniProt P07550)
Experiment: qHTS assay of beta-arrestin-biased ligands of beta2-adrenergic receptor: Hit Validation;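 further: plate controls were DMSO for no effect and maximal isoproterenol or metaproterenol response for full effect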
Conditions: cell-based beta-arrestin recruitment to beta2AR; Potency: activation; series mostly up to 46.1 µM; activation: at the top concentration
In short: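 Luminescent tTA-driven luciferase reporter in Tango cells, read after 18 h at 37 °C with compound and 15 min with substrate mix (0.15 mM ATP, 0.44 mM D-luciferin, final). Concentration-response fits categorized by curve class.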

activation, inactive:
CC(NC(=O)NNC(N)=S)(C(F)(F)F)C(F)(F)F -2.46%
Oc1ccccc1/C=N/Nc1nc2ccccc2o1 5.21%
Cc1ccc(S(=O)(=O)CNC(=S)c2ccc3ccccc3c2)cc1 -2.6%
COc1cc(/C=C2\CC/C(=C\c3ccc(OCCO)c(OC)c3)C2=O)ccc1OCCO 0.204%
S=C(Nc1ccccc1)Nc1nccs1 -1.57%
Cc1nn2c(nc1=O)NNC2(C)C(C)(C)C (configuration not stated) 4.3%
Cc1nn2c(COc3ccc(NC(=O)c4ccccc4Cl)cc3)nnc2c2ccccc12 0.533%
CCC1=Nc2cc(C(=O)NCc3ccco3)ccc2Sc2ccccc21 -0.414%
Cc1cccc(NC(=S)N=Nc2c(O)n(CN3CCOCC3)c3ccccc23)c1C -2.46%
O=C(c1ccc(CN2CCOCC2)cc1)N1CCN(c2cccc(Cl)c2)CC1 -3.76%
O=C(COC(=O)c1cc(=O)c2ccccc2o1)Nc1ccc2ccccc2c1 -3.15%
CN(C)NC(=S)Nc1ccc(Cl)cc1 -4.31%
Nc1ncnc(Oc2cccc3cccnc23)c1[N+](=O)[O-] -2.28%
O=C(/C=C/c1ccccc1)Oc1cccc2cccnc12 -4.36%
C=CCn1c(O)c(N=NC(=S)Nc2ccccc2C)c2cc(S(=O)(=O)N3CCOCC3)ccc21 -2.97%
O=C(CSC(=S)N1CCCCC1)c1c(F)cccc1F -1.39%
Cn1c(CNC(=O)c2ccccc2F)nnc1SCC(=O)c1ccccc1 0.675%
O=c1c(Cl)c(NCCCO)cnn1-c1nc2ccccc2[nH]1 -3.17%
COc1ccc(N2C(=O)CS/C2=N\C(=S)Nc2ccccc2)cc1 -5.46%
C=CCNC(=S)N/N=C/c1ccc(C)s1 -1.8%
CC1(C)C/C(=N\NC(=S)Nc2ccccc2F)c2cc(O)ccc2O1 -2.37%
COc1ccc(CN2CCCC(C(=O)c3ccc(SC)cc3)C2)cc1Cn1cccn1 (configuration not stated) 0.256%
CN1CCc2cccc3c2[C@H]1Cc1ccc(O)c(O)c1-3 -3.37%
COc1ccc(C2=C(C=C(C#N)C#N)C(c3ccccc3C)c3ccccc3O2)cc1OC (configuration not stated) -1.2%
O=C(CN1CCN(Cc2ccc3c(c2)OCO3)CC1)Nc1ccc(F)cc1 -2.52%
O=C(C[C@H]1C[C@H](C(=O)N2CCCCC2)[C@@]2(CCc3ccccc3)c3[nH]c4cc(-c5ccco5)ccc4c3CCN2C1=O)NCCC1=CCCCC1 0.303%
COc1cc(/C=N/NC(=S)Nc2cccnc2)cc(OC)c1OC -4.48%
O=C(c1ccccc1)c1ccc2nc(-c3ccco3)c(-c3ccco3)nc2c1 -1.16%
CCN(CC)CCC(=O)N1c2ccccc2Sc2ccc(NC(=O)OC)cc21 -1.25%
C=CCNC(=S)NN=C1CCC(c2ccccc2)CC1 (configuration not stated) -4%
COc1ccc(N2CCN(CCOc3ccc4c(C)cc(=O)oc4c3)CC2)cc1 -3.41%
CC(C)[C@H](NC(=O)c1ccccc1Cl)C(=O)Nc1nc(-c2ccccn2)cs1 -5.38%
O=C(NC(=S)Nc1ccc(Cl)cc1)c1ccccc1 -2.83%
COc1ccc(/C=N/Nc2nncc3ccccc23)c(OC)c1 -3.29%
Oc1ccc(NCc2ccccc2OCc2ccccc2)cc1 -3.26%
Cn1c(O)c(/C=N/NC(=O)c2cc3ccccc3cc2O)c2ccccc21 -3.51%
C/C(=N\NC(=S)NC(C)C)c1ccccc1OC(F)F -3.96%
CCOC(=O)c1cnc(-n2nc(C)cc2C)nc1NC -2.59%
Cc1ccc(S(=O)(=O)NCCC(C)C)cc1[N+](=O)[O-] -2.78%
COCCNC(=S)N/N=C(\C)c1ccccc1F -1.09%
O=C(NCc1ccc(Cl)cc1)c1cccc(NC(=O)c2ccccc2)c1 -3.54%
Cc1ccc(NC(=O)/C=C/c2ccc([N+](=O)[O-])s2)cc1 -1.08%
COCc1cc(CN2CCCC2)c(O)c2ncccc12 -2.36%
Cc1cc(C(=O)Nc2cccc3c2O[C@@H](CN(C)S(=O)(=O)c2ccccc2)[C@H](C)CN([C@@H](C)CO)C3=O)n(C)n1 0.0438%
COc1ccc(C(C)NC(=O)c2ccc(Br)cc2)cc1OC (configuration not stated) 8.18%
O=[N+]([O-])c1cccc(S(=O)(=O)Nc2nc3ccccc3nc2Nc2cccc(S(=O)(=O)N3CCCCC3)c2)c1 -2.99%
CC(=O)Nc1ccc(C2=NN(c3ccccc3)C(c3cccs3)C2)cc1 (configuration not stated) -0.888%
CCN(CC)C(=O)[C@H]1CC(CC(=O)NCc2ccc(OC)c(OC)c2)C(=O)N2CCc3c([nH]c4ccccc34)[C@]12C (some centres not stated) -7.37%
COc1ccc2ccccc2c1/C=N/NC(=S)NCCN1CCOCC1 -2.79%
Oc1ccc(/C=N/NC(=S)NC2CC3CCC2C3)cc1 (configuration not stated) -3.62%
CC(C)NC(=S)N/N=C/c1cccs1 0.0651%
O=C(Cn1ncc(Cl)c(Cl)c1=O)c1ccc2c(c1)OCCO2 -3.28%
COc1ccc(C2CC(O)(c3ccccc3)Oc3cc(OC)c(OC)c(OC)c32)cc1 (configuration not stated) -2.34%
Cc1cccnc1NC(=S)NCc1ccco1 -4.61%
CC(=O)c1cccc(CN2CCN(CCC(C)C)C(CCO)C2)c1 (configuration not stated) -4.2%
CCOC(=O)Nc1ccc2c(c1)N(C(=O)N(CC)CC)c1ccccc1CC2 -2.05%
COc1ccc(N2CCN(C(=O)CSc3nnc4n3C(C)(C)Cc3ccccc3-4)CC2)cc1 -2.49%
CCOc1ccc(CNC(=S)N/N=C\c2ccc([N+](=O)[O-])cc2)cc1 -0.211%
COc1ccc(NC(=O)C2C(=O)N(C)C3(C)CC2c2ccccc2O3)cc1 (configuration not stated) -1.4%
CNCc1ccccc1Sc1cc(O)ccc1O -2.8%
CCCC(C(=O)N1CCOCC1)N1C(=O)C2C3C=CC(C3)C2C1=O (configuration not stated) -2.13%
COc1ccc(NS(=O)(=O)c2ccc3oc(SC4CCOC4=O)nc3c2)cc1 (configuration not stated) -2.61%
COc1cc(CNCCCN2CCOCC2)c(Br)cc1OCC(=O)Nc1ccccc1C 1.75%
CN1/C(=C/C(=S)NC(=O)C2(C)CC2(Cl)Cl)C(C)(C)c2ccccc21 (configuration not stated) -1.09%
O=C(/C=C/c1ccc(F)cc1)NC(=S)N1CCN(Cc2ccccc2)CC1 -2.33%
O=Cc1ccc(O)c2ncccc12 0.14%
Cc1cc(C)nc(-n2nc(C)cc2NC(=O)CN2CCCC2)n1 -2.83%
COc1ccc(/C=C(\C#N)C(=O)OCC(=O)NCc2ccccc2)cc1 -4.17%
Cc1cccc(OCC(=O)N/N=C/C=C/c2ccco2)c1 -3.67%
COc1ccc2nc(NC(=O)[C@@H]3CCCN3C(=O)c3cccs3)sc2c1 0.537%
CCC(C(=O)Nc1cc(C)nn1-c1nc(C)cc(C)n1)c1ccccc1 (configuration not stated) -1.95%
CCOc1ccc(S(=O)(=O)NCCCn2ccnc2)cc1NC(C)=O -5.39%
CCNc1nc(NCC)nc(N/N=C/c2ccc(N(C)C)cc2)n1 -1.19%
CCCC1(C(=O)OCC)NC(c2ccc(OC)cc2OC)C2C(=O)N(c3ccc4c(c3)OCCO4)C(=O)C21 (configuration not stated) -2.03%
CCCn1c(Nc2nc3ccccc3n2C)nc2ccccc21 -2.95%
CCNc1nc(NCC)nc(N(C)/N=C/c2ccco2)n1 -0.197%
C/C(=N\NC(=S)NC(C)C)c1ccc(Cl)c([N+](=O)[O-])c1 -2.51%
COc1cccc(C(=O)NC(=S)Nc2ccccc2N2CCCCC2)c1 -1.12%
S=c1[nH]nc(-c2ccccc2)n1C1C=CCCC1 (configuration not stated) -0.185%
Clc1ccccc1C1Nc2cccc3cccc(c23)N1 -2.65%
CCOc1cccc(/C=C/c2ccc3cccc(O)c3n2)c1OC -1.23%
CS/C(N)=N/N=C/c1cc(C)ccc1O -8.4%
O=C(NCc1ccco1)c1cccn2c(=O)c3c4c(sc3nc12)CCCC4 -2.6%
CC(NC(=O)/C=C/c1ccco1)c1nc2ccccc2n1Cc1cccc(Cl)c1 (configuration not stated) -3.82%
CCOc1ccc(/C=N/NC(=S)NC2CC3CCC2C3)cc1 (configuration not stated) -0.951%
O=C1NC(c2ccc(-c3ccccc3[N+](=O)[O-])o2)C(C(=O)c2ccccc2)C(O)(C(F)(F)F)N1 (configuration not stated) 8.4%
COc1ccc(NC(=S)Nc2ccccn2)cc1 -0.613%
C/C(=N\NC(=S)NC1CCCCC1)c1cccs1 -5.46%
C[C@H](CO)N1C[C@H](C)[C@@H](CN(C)Cc2ccc3c(c2)OCO3)Oc2c(NC(=O)Cc3ccccc3)cccc2C1=O 4.2%
CCCC1=C/C(=C/c2ccc(-c3ccccc3OC)o2)C(=O)O1 -2.17%
Oc1oc(-c2cccc3ccccc23)nc1/C=N/c1nccs1 -0.65%
COc1cc(C=C(c2nc3ccccc3s2)c2nc3ccccc3s2)cc(OC)c1O 3.82%
COc1cc(OC)cc(C(=O)Oc2c(CN3CCOCC3)cc(Cl)c3cccnc23)c1 -3.45%
N/C(=N\OC(=O)C1CCCCC1)c1cccc(Br)c1 -1.33%
COc1cc(/C=N/Nc2ccc(F)cc2F)cc(OC)c1O -4.91%
C=CCn1c(CSc2nc3ccccc3s2)n[nH]c1=S -1.62%
COc1ccc(CCNC(=O)C2CCN(Cc3nc(-c4ccccc4F)oc3C)CC2)cc1OC -2.22%
Cc1cc(=O)n2cccc(O)c2n1 -5.71%
COc1ccc(C(=O)Oc2c(CN3CCOCC3)cc(Cl)c3cccnc23)cc1 -0.937%
O=C(C[n+]1ccccc1)Nc1ccccc1Br -0.761%
COc1cc(/C=C/c2ccc3c(Br)cc(Br)c(O)c3n2)ccc1O -2.11%
O=C(NCCc1ccccc1)c1cnc2sccn2c1=O -4.24%
COC(=O)c1ccc(COC(=O)CNC(=O)C2CCCCC2)cc1 -1.24%
CNC(=S)N/N=C(\C)c1ccc(Cl)s1 -3.17%
COc1cnc(-c2ccccn2)nc1Oc1ccccc1 -3.27%
CCOc1ccc(/C(CCC(=O)O)=N/NC(=S)NC(C)C)cc1 -1.96%
Cc1ccc(CNS(=O)(=O)c2ccc(CN3C(=O)c4cccnc4C3=O)s2)o1 0.159%
CC1(C)CC(C)(c2ccc(O)cc2O)N(c2cccc(Cl)c2)C(=S)N1 (configuration not stated) 5.1%
CN(C)/C=C1\C=C(c2ccccc2)OC1=O -1.82%
COc1ccccc1-c1cc(C(=O)N2CCN(c3ccccc3OC)CC2)no1 -1.04%
O=C1CNC(=S)N1c1nc2ccccc2s1 -6.16%
Clc1ccc(Cn2c(/C=C/c3ccco3)nc3ccccc32)cc1 -3.55%

Random excerpt: 2 compounds from above
activation, inactive:
Cc1cc(=O)n2cccc(O)c2n1 -5.71%
COc1ccc(C(C)NC(=O)c2ccc(Br)cc2)cc1OC (configuration not stated) 8.18%

Ordered by SMILES length (rising): some entries from above
activation, inactive:
CC(C)NC(=S)N/N=C/c1cccs1 0.0651%
N/C(=N\OC(=O)C1CCCCC1)c1cccc(Br)c1 -1.33%
COc1ccc(NS(=O)(=O)c2ccc3oc(SC4CCOC4=O)nc3c2)cc1 (configuration not stated) -2.61%

In the list so far, two contain a cyano group.
activation, inactive:
COc1ccc(C2=C(C=C(C#N)C#N)C(c3ccccc3C)c3ccccc3O2)cc1OC (configuration not stated) -1.2%
COc1ccc(/C=C(\C#N)C(=O)OCC(=O)NCc2ccccc2)cc1 -4.17%
